Laboratory results reported in PubChem BioAssay AID2417 (National Center for Advancing Translational Sciences (NCATS), 2010).
Screen size: about 140,000 compounds; about 4,300 (3.1%) were called active. The shares of active, inactive and inconclusive entries below differ from those in the screen.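 How the source made its calls: active means readout at or below -70, meaning at least 70% loss of cells showing the perinucleolar compartment, a nuclear body marking cancer cells; inconclusive means readout between -30 and a set limit; inactive means the rest.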

Test: High Content Assay for Compounds that inhibit the Assembly of the Perinucleolar Compartment;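 further: plate controls were DMSO wells for no effect and camptothecin positive control wells for full effect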
Settings: PC3M PTB-GFP, PNC prevalence imaging, 16 h; at 10 µM; stronger effect = lower value
Procedure, shortened: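 Read-out is percentage of cells bearing a perinucleolar compartment, from automated 20x imaging of fixed, Hoechst-stained PC3M PTB-GFP cells. Cells were seeded 4 h, then exposed 16 h to compound (23 nl of library stock) in duplicate plates.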

SMILES | activity change (PNC), negative = inhibition
O=C(NCC1CCCO1)c1ccc(COc2ccc(F)cc2)o1 (stereo unspecified) | inactive: -20.3%
O=C(Nc1cccc2ccccc12)c1onc2c1CCCC2 | inconclusive: -66%
Cc1ccc(-n2c(-c3ccc(Br)cc3)c[n+]3c2CCc2ccc4cccnc4c2-3)cc1 | inactive: 19%
CC(C)c1cc(N2CCC(=O)NC2=O)cc(C(=O)O)c1O | active: -114%
O=C(NCCN1CCCCC1)/C(=N\O)c1ccccc1 | inconclusive: -38%
O=C(CSCc1ccccc1)Nc1cccc(C(=O)Nc2ccccc2C(=O)O)c1 | inactive: 40.9%
CCN1CCN(CC(O)COc2ccc(C(C)=O)cc2)CC1 (stereo unspecified) | inconclusive: -56.9%
O=C(O)/C=C\C(=O)N1CCc2ccccc21 | inconclusive: -70.5%
CCCCc1ccc(CC(=O)O)cc1 | inconclusive: -61%
COc1ccc(N/C=C(\C#N)c2ccc(OCCCF)cc2)cc1 | inconclusive: -57.9%
Cc1cccc(-n2c(SCc3ccc(C#N)cc3)nnc2-c2c[nH]c3ccccc23)c1 | inactive: 4.14%
O=C(CC(Cc1ccccc1)c1ccco1)NC1CCCCC1 (stereo unspecified) | inactive: -13.2%
Cc1ccc(-n2cccc2/C=C2/NC(=O)N(CC(=O)Nc3cccc(C)c3)C2=O)cc1 | inconclusive: -49.4%
O=C(c1cnc(N2CCN(c3ncccn3)CC2)c2ccccc12)N1CCN(c2ncccn2)CC1 | inconclusive: -31%
COc1ccc(C(=O)NC(=S)Nc2cc(C)ccn2)cc1[N+](=O)[O-] | inconclusive: -40%
Cc1ccc(NC(=O)c2ccncc2)cc1S(=O)(=O)N(C)C | inactive: -5.17%
CCOC(=O)N1CCN(C(=O)Nc2cccc(Cl)c2)CC1 | inconclusive: -41%
O=C(COc1ccc(-c2nnco2)cc1)N1CCN(S(=O)(=O)c2ccccc2)CC1 | active: -81.4%
CSCCC(NC(=O)c1ccc(Cl)cc1)C(=O)OCC(=O)c1ccc[nH]1 (stereo unspecified) | active: -119%

An excerpt from above in order of heavy-atom count, descending.
SMILES | activity change (PNC), negative = inhibition
O=C(c1cnc(N2CCN(c3ncccn3)CC2)c2ccccc12)N1CCN(c2ncccn2)CC1 | inconclusive: -31%
Cc1ccc(-n2c(-c3ccc(Br)cc3)c[n+]3c2CCc2ccc4cccnc4c2-3)cc1 | inactive: 19%
O=C(COc1ccc(-c2nnco2)cc1)N1CCN(S(=O)(=O)c2ccccc2)CC1 | active: -81.4%
COc1ccc(N/C=C(\C#N)c2ccc(OCCCF)cc2)cc1 | inconclusive: -57.9%
O=C(Nc1cccc2ccccc12)c1onc2c1CCCC2 | inconclusive: -66%

The list goes on:

SMILES | activity change (PNC), negative = inhibition
COc1ccc(C(=O)NN2C(=O)C3C4C=CC(O4)C3C2=O)cc1 (stereo unspecified) | inactive: -0.248%
Cc1ccc(SCc2ccc(C(=O)Nc3ccccc3C(=O)NC(C)C)cc2)cc1 | active: -87.5%
CC(C)(C)c1ccc(NC(=O)CC2(C(F)(F)F)OCCO2)cc1 | inconclusive: -61.9%
CCc1nc2ccccc2n(CCOCCOCCn2c(=O)c(CC)nc3ccccc32)c1=O | inconclusive: -30.6%
N#Cc1ccccc1NC(=O)CSc1nnc(-c2ccc(F)cc2)n1-c1ccccc1 | inactive: 14.8%
O=C(Nc1ccc(Cl)cn1)C1CCCN1S(=O)(=O)c1cccc2ccccc12 (stereo unspecified) | inconclusive: -39.4%
CCOc1ccc2nc(NC(=O)/C=C/c3ccc4c(c3)OCO4)sc2c1 | inconclusive: -42.1%
Cc1oc2nc(SCCCC(=O)NCCO)nc(N)c2c1C | inactive: -0.394%
Cc1ccc(NC(=O)COc2ccc(-n3cnnn3)cc2)cc1C | inconclusive: -71.8%
CCN(CCCNC(=O)CCNC(=O)Cn1ccc2ccccc2c1=O)c1ccccc1 | active: -94.3%
Cc1c(C(N)=O)sc(N)c1C(=O)OC(C)C | inconclusive: -42.6%
CC(CC(=O)NCc1ccccc1)C1CCCO1 (stereo unspecified) | inconclusive: -34.2%
CC(C(=O)Nc1cc([N+](=O)[O-])ccc1Cl)N1CCN(c2ccc(O)cc2)CC1 (stereo unspecified) | active: -85.2%
CCN(CC)S(=O)(=O)c1ccc(NC(=O)Cn2c(=O)sc3ccccc32)cc1 | inconclusive: -67.3%
CN(CC(=O)Nc1ccc(Cl)cc1)S(=O)(=O)c1cccc2cccnc12 | inconclusive: -38.3%
Cc1c(C(=O)N/N=C/c2ccccc2)sc(=S)n1C | inconclusive: -30.6%
Oc1ccc(/C=N/Nc2nc(-c3ccc(Cl)cc3)cc(C(F)(F)F)n2)cc1 | inconclusive: -34.1%
CCCC(c1nnnn1C(C)(C)CC)N(Cc1ccco1)Cc1cc2ccc(OC)cc2[nH]c1=O (stereo unspecified) | inactive: -27.5%
COc1ccc(/C=N/NC(=S)Nc2cccc(C(=O)O)c2)cc1OC | inactive: -8.1%

SMILES | activity change (PNC), negative = inhibition
CN(Cc1cccs1)C(=O)CCc1ccc(S(=O)(=O)N2CCOCC2)cc1 | inconclusive: -39.8%
Cc1ccccc1Cn1c(-c2cncs2)nc2ccccc21 | inconclusive: -39.2%
COc1ccc(CCNC(=O)CCNS(=O)(=O)c2cccc3nonc23)cc1OC | inactive: -26.3%
Cc1cccc2sc(N(CCCN(C)C)C(=O)CCc3ccccc3)nc12 | inconclusive: -50.7%
O=C1CC(=C(c2ccccc2)c2ccccc2)C(=O)N1CCN1CCN(c2cccc(Cl)c2)CC1 | inconclusive: -30.6%
CCOCCCNC(=O)C(NC(=O)CNC(=O)c1ccccc1)c1ccc(C)cc1 (stereo unspecified) | inconclusive: -38.7%
Cc1c(N2C(=O)/C(=C\c3cccc4ccccc34)SC2=S)c(=O)n(-c2ccccc2)n1C | inconclusive: -32.2%
CN(C)c1ccc(-n2cccc2/C=N/n2cnnc2)cc1 | inconclusive: -44.5%
COc1ccc(NS(=O)(=O)c2ccc(N3CCCC3)c(NC(=S)Nc3cccc(S(=O)(=O)N(C)C)c3)c2)cc1 | inconclusive: -69.5%
CCNc1nc(NC(C)C)nc(OCCOC(=O)c2ccccc2)n1 | active: -100%
CCC(=O)N1CCc2cc(Br)cc(S(=O)(=O)C3(C(=O)OC)CC3)c21 | inconclusive: -59.8%
COCCNC(=O)C(=O)N/N=C/c1ccccc1C(F)(F)F | inactive: 29%
O=C(COc1ccccc1[N+](=O)[O-])N/N=C/c1cccs1 | active: -96%
CCN(CC(O)Cn1c2ccccc2c2ccccc21)S(=O)(=O)c1ccc(C)cc1 (stereo unspecified) | inconclusive: -44.3%
Cc1ccc(S(=O)(=O)NC(=O)c2cc(C)n(-c3ccc(N(C)C)cc3)c2C)cc1 | inconclusive: -74.6%
CC1(C)CC(=O)c2cnc(NC(=O)Cc3ccc(Cl)cc3)nc2C1 | inconclusive: -60.6%
CCNc1nc(NCC)n2c(SCC(=O)c3ccc(C(C)C)cc3)nnc2n1 | inconclusive: -36%
c1ccc(CN2CCN(c3nc(-c4ccccc4)nc(-n4ccnc4)n3)CC2)cc1 | inconclusive: -41.5%
